Consider seven sequences from patent US20250281621.

Chains of the proteins cited; added tags and fusions are not shown. A line that says so, or that is headed by a name, gives the form on record, which may keep a tag or linker.
Glypican-3 (GPC3), one chain, as listed by the source, chain 2 of 2: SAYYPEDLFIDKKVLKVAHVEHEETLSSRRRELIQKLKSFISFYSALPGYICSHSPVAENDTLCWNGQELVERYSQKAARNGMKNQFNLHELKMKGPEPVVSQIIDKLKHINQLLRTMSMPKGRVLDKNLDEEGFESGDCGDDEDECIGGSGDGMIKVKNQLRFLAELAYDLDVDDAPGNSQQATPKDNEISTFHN

For some of these results: At least one result comes from cells or an extract, where the contact may be indirect. For some of these results: Whether high values mean tight binding is not given here for every scale. For some of these results: For at least one entry, the source does not settle the construct or the ends of the probe.

Usually Kd stands for the concentration at which binding is half-saturated.

Series [1] has as its system Glypican-3 (GPC3). Put plainly: binding assay. The conditions noted are these: fully 2'-OMe, method not stated, purified recombinant protein.
For series [2], the system named is Glypican-3 (GPC3), endogenous (Homo sapiens). The experiment in a line: binding assay. The note with it: fully 2'-OMe, protein on the cell surface, protein details: endogenous on Hep3B, HepG2, NCI-H446, Huh7 cells.
The test system of series [3] is Glypican-3 (GPC3). The experiment in a line: flow cytometry. The note with it: fully 2'-OMe, protein on the cell surface. (Flow cytometry measures light scatter and fluorescence of single cells or particles in a stream.)
Setting [4] is: Hep3B cells, no refolding needed, data not shown, variant of GRX8 (Min9).

On to “CGUCAUCGGGUUGCUACCCAAGGUCAGGUGACGAUGACG [GRX8 QUAD6]”, for which, in the series with Glypican-3 (GPC3) [1] (kon 2.01E5 1/Ms, koff 2.48E-4 1/s, variant of GRX8 (Min9)), the Kd is 1.24 nM. In series [2] (setting [4]), the binding result is recorded as “binds”. Turning to “CGUCAUCGGGUUGCUACCCAAGGCCAGGAGGCGAUGACG [GRX49]”, the Kd in the series on Glypican-3 (GPC3) [3] (GPC3+ HEK293 cells, variant of GRX8 (Min9)) worked out at 9 nM; in the series with Glypican-3 (GPC3) [1] (kon 1.99E5 1/Ms, koff 1.46E-4 1/s, variant of GRX8 (Min9)), 0.74 nM. For the same sequence, in series [2] (Hep3B, HepG2, NCI-H446, Huh7, no refolding needed, data not shown, variant of GRX8 (Min9)), the binding result was “binds”.

With “CGUCAUCGGGUUGCUACCCAAGGCCAGGAGGCGAUGACG [GRX54 (GRX49-DM1 conjugate)]”, the binding result in series [2] (DM1 conjugate, specific binding to Hep3B and NCI-H446, selectively kills GPC3+ cells, variant of GRX49) is “binds”. With “CGUCAUCGGGUUGCUACCCAAGGUCAGGAGACGAUGACG [GRX8 triple 1]”, the Kd in the series with Glypican-3 (GPC3) [1] (kon 1.12E5 1/Ms, koff 1.59E-4 1/s, listed as GRX8 with triple, variant of GRX8 (Min9)) stood at 1.41 nM. Further, in series [2] (setting [4]), the binding result is reported as “binds”.

The sequence “AAGCCAUUACCGGGUUGCUACCCGAGGACAAGAGUCGAUGAUGCUU [Min3]” showed a binding signal in the series with Glypican-3 (GPC3) [3] (GPC3- HEK293 control 444, variant of W2.S4.1_R6F_14 (clone F14), counted as no binding) of 377 MFI. As to “CGUCAUCGGGUUGCUACCCAAGGUCAAGAGACGAUGACG [GRX46]”, in the series with Glypican-3 (GPC3) [1] (kon 5.54E4 1/Ms, koff 7.82E-4 1/s, variant of GRX8 (Min9)), the Kd amounted to 15 nM. Moreover, in series [2] (similar enhanced binding and refolding behavior, data not shown, variant of GRX8 (Min9)), the binding result was “binds”. “CGUCAUCGGGUUGCUACCCAAGGACAAGAGUCGAUGACG [GRX8 (Min9)]”: the Kd in the series with Glypican-3 (GPC3) [1] (kon 6.19E4 1/Ms, koff 7.32E-4 1/s, variant of W2.S4.1_R6F_14 (clone F14)) is 13 nM. Further, the binding result in series [2] (high affinity, improved by refolding, FAM-GRX8 accumulates in Hep3B but not A549 (GPC3-) tumors in mice, variant of W2.S4.1_R6F_14 (clone F14)) is “binds”.
